# Laboratory results as given in PubChem BioAssay AID2685 (National Center for Advancing Translational Sciences (NCATS), 2010).
# The list shows a part of the results. Further columns of the screen follow, without active or inactive calls. Most of these compounds were active or inconclusive in the main read-out, so they are no random draw. The note in brackets gives the kind of curve behind each potency; many fits are weak.
# Assay: qHTS Assay for Lipid Storage Modulators in Drosophila S3 Cells;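 as to cell number change: cells counted by Cell Tracker Red CMTPX staining in the red channel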
# Settings: BODIPY lipid droplet fluorescence, 18-24 h; for cell number change: measured here: cell count max response, cells fed with added oleic acid
# In short: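 Drosophila S3 cells got compounds at several concentrations plus oleic acid (400 uM solution). Laser-scanning cytometry with 488 nm excitation read lipid droplets at 500-530 nm and cells at 575-640 nm. Percent activity was relative to 20 uM Triacsin C.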
# [1] = measured here: lipid fluorescence (Fed channel) AC50, cells fed with added oleic acid
# [2] = measured here: cell number channel AC50, cells fed with added oleic acid
Structure (SMILES),AC50 [1],cell number change [%],AC50 [2]
O=C(Nc1ccc2c(c1)OCO2)C(c1ccc(Cl)cc1)N1CCN(C(=O)c2ccco2)CC1 (stereo not given),"0.184 µM [rising, full curve, poor fit]",–,–
O=C1CN(C(=O)c2ccco2)c2ccccc2N1,"23.1 µM [falling, partial curve]",-78.5,"7.31 µM [falling, partial curve]"
O=c1[nH]c2cc([N+](=O)[O-])c([N+](=O)[O-])cc2[nH]c1=O,"0.82 µM [rising, single point]",-39.7,"29.1 µM [falling, single point]"
Cc1ccc(F)cc1CNC(=O)C1CCC(=O)N(CCCN2CCCC2=O)C1 (stereo not given),–,-3.18,–
Cc1ccccc1OCc1nc(-c2ccc(Br)o2)no1,"5.17 µM [rising, partial curve]",87.8,"4.11 µM [rising, full curve]"
O=C1C2C3C=CC(C3)C2C(=O)N1CN(Cc1ccccc1)CN1C(=O)C2C3C=CC(C3)C2C1=O (stereo not given),"18.4 µM [rising, partial curve, poor fit]",-2.57,–
CC(=O)Nc1ccc(NC(=O)C2CCN(C(=O)NC3CCCCC3)CC2)cc1,–,36.8,"20.6 µM [rising, single point]"
COCCN1Cc2cccc(C(=O)Nc3c(C)cc(C)cc3C)c2C1=O,"20.6 µM [rising, partial curve, poor fit]",-13.8,–
O=C(Nc1ccn(CC(=O)N2CCN(c3ccccn3)CC2)c(=O)n1)OCc1ccccc1,"0.164 µM [falling, full curve, poor fit]",-2.46,"0.164 µM [falling, single point]"
CCCCCN(C(=O)CCC(=O)OCC(=O)c1ccc(C(C)(C)C)cc1)c1c(N)n(CCCC)c(=O)[nH]c1=O,–,-50,"29.1 µM [falling, single point]"
CCOc1cc(/C=C2/C(=O)ON=C2C)ccc1OCc1ccccc1,"29.1 µM [falling, single point]",-52.5,"23.1 µM [falling, single point]"
CCOc1ccc(S(=O)(=O)NC(C)(C)C)cc1-c1nc2c(C(C)(C)C)nn(C)c2c(=O)[nH]1,"29.1 µM [falling, single point]",-34.7,"23.1 µM [falling, single point]"
COc1ccc(Cl)cc1NC(=O)CCN1CCN(Cc2ccccc2)CC1,"20.6 µM [falling, single point]",-17,–
Cc1cc(=O)[nH]c(SCC(=O)Nc2ncc(S(=O)(=O)c3ccc([N+](=O)[O-])cc3)s2)n1,"29.1 µM [rising, single point]",34,"29.1 µM [rising, single point]"
O=C(OCC(=O)N1CCCCCC1)c1ccc(F)cc1F,–,-25.7,–
Cn1c(SCC(=O)N2CC(=O)Nc3ccccc32)nnc1C(F)(F)F,–,3.21,–
CCOC(=O)c1cc(S(=O)(=O)N2CCN(Cc3ccccc3)CC2)cn1C,"5.17 µM [rising, single point]",9.22,–
CC(C)=C1SC(N2CCCCC2)=NC1=O,"29.1 µM [falling, partial curve]",-58,"32.6 µM [falling, single point]"
COc1ccc(C(c2nnnn2Cc2ccccc2)N2CCN(C(=O)c3ccco3)CC2)cc1OC (stereo not given),"0.0058 µM [rising, full curve, poor fit]",-7.95,–

# Structures listed so far with four or more nitrogen atoms (eight):
Structure (SMILES),AC50 [1],cell number change [%],AC50 [2]
O=c1[nH]c2cc([N+](=O)[O-])c([N+](=O)[O-])cc2[nH]c1=O,"0.82 µM [rising, single point]",-39.7,"29.1 µM [falling, single point]"
CC(=O)Nc1ccc(NC(=O)C2CCN(C(=O)NC3CCCCC3)CC2)cc1,–,36.8,"20.6 µM [rising, single point]"
O=C(Nc1ccn(CC(=O)N2CCN(c3ccccn3)CC2)c(=O)n1)OCc1ccccc1,"0.164 µM [falling, full curve, poor fit]",-2.46,"0.164 µM [falling, single point]"
CCCCCN(C(=O)CCC(=O)OCC(=O)c1ccc(C(C)(C)C)cc1)c1c(N)n(CCCC)c(=O)[nH]c1=O,–,-50,"29.1 µM [falling, single point]"
CCOc1ccc(S(=O)(=O)NC(C)(C)C)cc1-c1nc2c(C(C)(C)C)nn(C)c2c(=O)[nH]1,"29.1 µM [falling, single point]",-34.7,"23.1 µM [falling, single point]"
Cc1cc(=O)[nH]c(SCC(=O)Nc2ncc(S(=O)(=O)c3ccc([N+](=O)[O-])cc3)s2)n1,"29.1 µM [rising, single point]",34,"29.1 µM [rising, single point]"
Cn1c(SCC(=O)N2CC(=O)Nc3ccccc32)nnc1C(F)(F)F,–,3.21,–
COc1ccc(C(c2nnnn2Cc2ccccc2)N2CCN(C(=O)c3ccco3)CC2)cc1OC (stereo not given),"0.0058 µM [rising, full curve, poor fit]",-7.95,–

# Next part.

Structure (SMILES),AC50 [1],cell number change [%],AC50 [2]
O=C1CC(Sc2nnc(-c3ccccc3)o2)C(=O)N1c1ccccc1 (stereo not given),"29.1 µM [falling, single point]",-220,"29.1 µM [falling, single point]"
CC(C)CC(C(=O)NC1CCCC1)N(Cc1ccc2c(c1)OCO2)C(=O)c1snc(C(N)=O)c1N (stereo not given),–,-35.2,"23.1 µM [falling, single point]"
CC(C)(C)NC(=O)C1CCN(S(=O)(=O)c2cccc3nsnc23)CC1,–,-18.3,–
COc1ccccc1NS(=O)(=O)c1cccc(NC(=O)c2nc3nc(C)cc(C)n3n2)c1,"16.4 µM [falling, single point]",-5.79,"0.92 µM [rising, partial curve]"
O=S1(=O)C[C@@H](O)[C@@H](Nc2ccc(Cl)cc2)C1,–,-9.73,–
N#Cc1ccc(-c2csc(NC(=O)c3cc(-c4cccs4)nc4ccccc34)n2)cc1,"0.164 µM [rising, full curve, poor fit]",38.4,"0.366 µM [rising, full curve]"
CCOC(=O)c1ccccc1NC(=O)Cn1cnc2c(cnn2C(C)(C)C)c1=O,"9.2 µM [falling, partial curve, poor fit]",-35.6,–
Cc1ccc(C)c(NC(=O)N2CCCCCC2)c1,"6.51 µM [rising, single point]",–,–
CN(NC(=O)c1ccccc1)c1ncc(C(F)(F)F)cc1Cl,–,-35.3,"2.91 µM [falling, full curve]"
O=S(=O)(c1ccc(-c2csc(Nc3ccc(F)cc3)n2)cc1)N1CCCC1,–,–,"2.59 µM [rising, single point]"
COc1cc(C2C(C#N)=C(N)OC3=C2C(=O)CCC3)cc2c1OCO2 (stereo not given),"3.66 µM [rising, partial curve, poor fit]",29.2,–
O=S(=O)(c1cccc2cccnc12)N1CCc2ccccc21,"4.11 µM [rising, single point]",–,"1.84 µM [falling, partial curve]"
O=C(c1ccccc1)C(O)c1ccccc1 (stereo not given),"5.8 µM [rising, partial curve, poor fit]",27,–
O=C(O)CC(Cc1ccc(Br)cc1)C(=O)Nc1ccccc1 (stereo not given),"23.1 µM [rising, partial curve]",10.9,–
CN1CCN(Cc2nnc(-c3ccccc3)o2)CC1,"29.1 µM [falling, single point]",–,–
COc1cc(C)c(S(=O)(=O)N2CCN=C2c2ccccc2)cc1C,–,–,"5.17 µM [falling, single point]"
NC(=O)C1CCN(C(=O)c2ccc(C(F)(F)F)cc2)CC1,"0.00411 µM [rising, full curve, poor fit]",4.24,–
CN(NC(=O)c1ccccc1Cl)c1ncc(C(F)(F)F)cc1Cl,"0.58 µM [falling, single point]",33,"0.82 µM [falling, single point]"
COc1ccc(N2C(=NC(=O)C3CCCCC3)SC3CS(=O)(=O)CC32)cc1OC (stereo not given),–,0.382,–

# Single values from the entries so far:
# AC50 [1] with COc1ccc(Cl)cc1NC(=O)CCN1CCN(Cc2ccccc2)CC1 reads 20.6 µM [falling, single point]
# cell number change [%] with COc1ccc(N2C(=NC(=O)C3CCCCC3)SC3CS(=O)(=O)CC32)cc1OC (stereo not given) reads 0.382

# Additional entries

Structure (SMILES),AC50 [1],cell number change [%],AC50 [2]
Clc1ccc(OCc2nn3c(-c4ccco4)nnc3s2)cc1,"14.6 µM [falling, partial curve, poor fit]",–,–
Cc1cc(CNC(=O)C(C)n2nc(C)c([N+](=O)[O-])c2C)c2ccccc2n1 (stereo not given),–,18.8,–
CCN(c1ccccc1)S(=O)(=O)c1ccc(Cl)c(NC(=O)COC(=O)c2cc(O)c3ccccc3c2O)c1,"10.3 µM [falling, single point]",-15.5,–
O=C(O)CCC(=O)NC1CCCCC1,–,-46.7,"29.1 µM [falling, single point]"
Cc1cc(C)n2nc(C(=O)OCC(=O)N(C)CC(=O)Nc3ccccc3Cl)nc2n1,"10.3 µM [falling, partial curve, poor fit]",-9.06,–
COC(=O)C1=NN(c2ccc(OC)cc2)C2C(=O)N(c3ccccc3OC)C(=O)C12 (stereo not given),"13 µM [rising, single point]",10.9,–
COc1cc(CC(=O)OCC(=O)NC2CCCCC2)cc(OC)c1OC,–,-23.2,"0.00517 µM [falling, full curve, poor fit]"
Cc1c(=O)n(OCc2ccc(Cl)cc2)c2ccccc2[n+]1[O-],"3.66 µM [falling, full curve, poor fit]",–,–
O=C(c1nc2nc(-c3ccccc3)cc(C(F)(F)F)n2n1)N1CCOCC1,–,45.7,"2.31 µM [rising, partial curve]"
COc1ccccc1NC(=O)/C(C#N)=C/C=C/c1ccco1,"7.31 µM [rising, partial curve]",-2.74,"0.651 µM [falling, single point]"
Cc1ccc2cc(C(c3nnnn3C3CCCC3)N3CCN(c4ccccc4)CC3)c(=O)[nH]c2c1 (stereo not given),"2.06 µM [rising, partial curve]",23.8,–
Cc1cc(C)c(C(=O)Nc2ccc(S(=O)(=O)Nc3onc(C)c3C)cc2)c(C)c1,"20.6 µM [falling, partial curve, poor fit]",-33.9,"23.1 µM [falling, partial curve]"
CCOC(=O)N1CCN(S(=O)(=O)c2ccc(F)c(C(=O)Nc3ccc(C)c(Cl)c3)c2)CC1,–,-8.98,–
Cc1nn(Cc2noc(C(=O)NCCCn3ccnc3)n2)c(C)c1Br,"0.13 µM [rising, full curve, poor fit]",–,–
C=CCNC(=O)/C(C#N)=C/c1ccc(SC)cc1,–,35.4,–
COc1cccc(COC(=O)c2ccc(S(=O)(=O)N3CCC(C)CC3)cc2)c1OC,–,-1.81,–
CC(C)N(Cc1ccccc1)C(=O)C1CCCN(c2ncnc3c2nc2n3CCCCC2)C1 (stereo not given),"3.26 µM [falling, partial curve]",-43.5,"32.6 µM [falling, single point]"
C[C@H](NC(=O)c1nc[nH]c1C(=O)N[C@@H](CCCCN)C(=O)OC(C)(C)C)C(=O)OC(C)(C)C,"18.4 µM [rising, partial curve]",-46.6,"10.3 µM [falling, partial curve, poor fit]"
